Source: patent US9120994B2, “Terpene alcohols for use in fragrance compositions and perfumed products” (Givaudan S.A., priority 2011, dated 2015)

Assay: Odor description (olfactory evaluation)

## CC(C)=CC[C@H](C)[C@H]1C[C@]1(C)CO (relative stereo) [Compound Ib, [(1S*,2R*)-1-Methyl-2-[(S*)-5-methylhex-4-en-2-yl]cyclopropyl]methanol]
  Odor description: floral, rosy, geraniol-like

## CC(C)=CCC(C)C1CC1(C)CO (stereo not shown) [Example 2, [1-Methyl-2(5-methylhex-4-en-2yl)cyclopropyl]methanol]
  Odor description: floral rosy, geranium-like, diffusive

## CC(C)=CC[C@@H](C)[C@H]1C[C@]1(C)CO (relative stereo) [Compound Ic, [(1S*,2R*)-1-Methyl-2-[(R*)-5-methylhex-4-en-2-yl]cyclopropyl]methanol]
  Odor description: floral, rosy, phenoxanol-like, citrus

## CC(C)=CCC(C)/C=C(\C)CO (stereo not shown) [Compound Ia, 2,4,7-Trimethylocta-2,6-dien-1-ol]
  Odor description: floral, rose and geranium-like with citrus note
